These are yes or no findings as the source states them, for the method shown. Binding seen in cells or lysates may run through a third protein. Binding can be weak; no strength is given. Sequences can lack the tags named with a protein.
Target: PPTC7-FLAG (wild type) (human) (UniProt Q8NI37)
Test: co-IP; PPTC7-FLAG (wild type or mutant) as bait on anti-FLAG beads, 1-2 h at 4 °C, from transfected U2OS, U2OS FBXL4 KO (with or without FBXL4(HA) variants), 293T or 293T PPTC7 KO cells; with or without DFP 24 h or MLN4924; Tris-Triton lysis buffer (50 mM Tris-Cl pH 7.5, 150 mM NaCl, 1% Triton) …

The chains behind the UniProt entries cited, without tags or fusion partners. Where a name states a change or a piece, a line headed by the entry shows the natural chain unless it says otherwise.
UniProt Q8NI37: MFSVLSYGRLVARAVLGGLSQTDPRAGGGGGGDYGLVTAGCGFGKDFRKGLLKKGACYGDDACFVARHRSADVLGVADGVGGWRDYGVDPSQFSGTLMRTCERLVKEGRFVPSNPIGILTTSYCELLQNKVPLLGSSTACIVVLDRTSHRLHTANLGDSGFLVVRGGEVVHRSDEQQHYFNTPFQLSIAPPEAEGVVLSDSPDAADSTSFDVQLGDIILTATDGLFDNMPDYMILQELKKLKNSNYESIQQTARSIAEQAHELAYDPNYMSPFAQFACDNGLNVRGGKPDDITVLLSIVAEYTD

B1: HA-tagged FBXL4 wild type (protein, UniProt Q9UKA2 1-621)
chain: MSPVFPMLTVLTMFYYICLRRRARTATRGEMMNTHRAIESNSQTSPLNAEVVQYAKEVVDFSSHYGSENSMSYTMWNLAGVPNVFPSSGDFTQTAVFRTYGTWWDQCPSASLPFKRTPPNFQSQDYVELTFEQQVYPTAVHVLETYHPGAVIRILACSANPYSPNPPAEVRWEILWSERPTKVNASQARQFKPCIKQINFPTNLIRLEVNSSLLEYYTELDAVVLHGVKDKPVLSLKTSLIDMNDIEDDAYAEKDGCGMDSLNKKFSSAVLGEGPNNGYFDKLPYELIQLILNHLTLPDLCRLAQTCKLLSQHCCDPLQYIHLNLQPYWAKLDDTSLEFLQSRCTLVQWLNLSWTGNRGFISVAGFSRFLKVCGSELVRLELSCSHFLNETCLEVISEMCPNLQALNLSSCDKLPPQAFNHIAKLCSLKRLVLYRTKVEQTALLSILNFCSELQHLSLGSCVMIEDYDVIASMIGAKCKKLRTLDLWRCKNITENGIAELASGCPLLEELDLGWCPTLQSSTGCFTRLAHQLPNLQKLFLTANRSVCDTDIDELACNCTRLQQLDILGTRMVSPASLRKLLESCKDLSLLDVSFCSQIDNRAVLELNASFPKVFIKKSFTQ
  binding: binds
